PubChem BioAssay AID504774, Drosophila RNAi Screening Center – 2011

Aim: 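Genes required for cells to withstand methyl methanesulphonate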 (primary screen)
Cell system: Drosophila Kc167 cells
Knock-down reagent: long dsRNA against Drosophila genes, about 0.25 µg dsRNA per well
Time to read-out: about 6 days: 3 days knock-down, then 3 days with or without MMS
Conditions: methyl methanesulphonate 0.004% (w/v) for 3 days after knock-down
Measurement: 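Viability in wells given MMS, read as ATP luminescence, normalised by quantiles plate by plate and averaged across replicates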
Direction: mean viability with MMS: higher = more surviving cells after MMS
The deposit covers about 23,000 reagents; below is a random part of those that have a named target and a result. 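Values are quantile-normalised luminescence on an arbitrary scale; higher means more cells surviving MMS.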 A plus sign joins genes that one reagent is predicted to hit. Not all columns of the deposit are shown.

For Spg7 [DRSC18469], what was measured?
mean viability with MMS: 3.61e6

Which result is listed for CG34040 [DRSC03902]?
mean viability with MMS: 3.57e6

For CG9864 [DRSC07346], what does the deposit list?
mean viability with MMS: 3.46e6

What is on record for CG30484 [DRSC05457]?
mean viability with MMS: 3.47e6

For Cyp6g1 [DRSC07386], what was measured?
mean viability with MMS: 3.78e6

What is on record for CG9426 [DRSC03219]?
mean viability with MMS: 3.35e6

What did the screen give for CG34315 + Orc3 [DRSC07642]?
mean viability with MMS: 3.22e6

How did the screen score tor [DRSC07707]?
mean viability with MMS: 3.58e6

Which result is listed for CG13319 [DRSC06356]?
mean viability with MMS: 1.95e6

How did the screen score CG10702 [DRSC02097]?
mean viability with MMS: 3.41e6

With CG14355 [DRSC14818], how do the results read?
mean viability with MMS: 3.58e6

What is on record for CG7140 [DRSC11799]?
mean viability with MMS: 3.78e6

With CG31612 [DRSC03697], what was measured?
mean viability with MMS: 3.70e6

With CG31612 [DRSC03698], how do the results read?
mean viability with MMS: 3.56e6

No new results follow: an excerpt of the list.
tor [DRSC07707] | mean viability with MMS: 3.58e6
CG13319 [DRSC06356] | mean viability with MMS: 1.95e6
